Measurements as given in the supplement of paper PMC8728848.
The list shows a part of the results.

Legend:
Assay in all cases: glycan array binding signal (z-score within array); higher = stronger binding
Details in all cases: glycan notation: IUPAC condensed, linker removed
[1] = biological target: Gal(b1-4)GlcNAc(b1-3)Gal(b1-4)GlcNAc(b1-3)Gal(b1-4)GlcNAc(b1-2)Man(a1-3)[Gal(b1-4)GlcNAc(b1-3)Gal(b1-4)GlcNAc(b1-3)Gal(b1-4)GlcNAc(b1-2)Man(a1-6)]Man(b1-4)GlcNAc(b1-4)GlcNAc
Procedure, shortened: (§1)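 From the Consortium for Functional Glycomics database, 3228 arrays were curated, keeping only those whose protein sequence was available. Binding is given as a within-array Z-score averaged across arrays sharing a protein sequence and across linkers. Negative Z-scores can be read as non-binding.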

[2] = biological target: Gal(b1-4)GlcNAc(b1-3)Gal(b1-4)GlcNAc(b1-3)Gal(b1-4)GlcNAc(b1-2)Man(a1-3)[Gal(b1-4)GlcNAc(b1-3)Gal(b1-4)GlcNAc(b1-3)Gal(b1-4)GlcNAc(b1-2)Man(a1-6)]Man(b1-4)GlcNAc(b1-4)[Fuc(a1-6)]GlcNAc
Procedure, shortened: as §1

[3] = biological target: Gal(b1-4)GlcNAc(b1-3)Gal(b1-4)GlcNAc(b1-3)Gal(b1-4)GlcNAc(b1-2)[Gal(b1-4)GlcNAc(b1-3)Gal(b1-4)GlcNAc(b1-3)Gal(b1-4)GlcNAc(b1-6)]Man(a1-6)[Gal(b1-4)GlcNAc(b1-3)Gal(b1-4)GlcNAc(b1-3)Gal(b1-4)GlcNAc(b1-2)Man(a1-3)]Man(b1-4)GlcNAc(b1-4)[Fuc(a1-6)]GlcNAc
Procedure, shortened: as §1

[4] = biological target: Gal(b1-4)GlcNAc(b1-3)Gal(b1-4)GlcNAc(b1-3)Gal(b1-4)GlcNAc(b1-3)Gal(b1-4)GlcNAc(b1-2)Man(a1-3)[Gal(b1-4)GlcNAc(b1-3)Gal(b1-4)GlcNAc(b1-3)Gal(b1-4)GlcNAc(b1-3)Gal(b1-4)GlcNAc(b1-2)Man(a1-6)]Man(b1-4)GlcNAc(b1-4)GlcNAc
Procedure, shortened: as §1

[5] = biological target: Gal(b1-4)GlcNAc(b1-3)Gal(b1-4)GlcNAc(b1-3)Gal(b1-4)GlcNAc(b1-3)Gal(b1-4)GlcNAc(b1-2)Man(a1-3)[Gal(b1-4)GlcNAc(b1-3)Gal(b1-4)GlcNAc(b1-3)Gal(b1-4)GlcNAc(b1-3)Gal(b1-4)GlcNAc(b1-2)Man(a1-6)]Man(b1-4)GlcNAc(b1-4)[Fuc(a1-6)]GlcNAc
Procedure, shortened: as §1

[6] = biological target: Gal(b1-4)GlcNAc(b1-3)Gal(b1-4)GlcNAc(b1-3)Gal(b1-4)GlcNAc(b1-3)Gal(b1-4)GlcNAc(b1-2)[Gal(b1-4)GlcNAc(b1-3)Gal(b1-4)GlcNAc(b1-3)Gal(b1-4)GlcNAc(b1-3)Gal(b1-4)GlcNAc(b1-6)]Man(a1-6)[Gal(b1-4)GlcNAc(b1-3)Gal(b1-4)GlcNAc(b1-3)Gal(b1-4)GlcNAc(b1-3)Gal(b1-4)GlcNAc(b1-2)Man(a1-3)]Man(b1-4)GlcNAc(b1-4)[Fuc(a1-6)]GlcNAc
Procedure, shortened: as §1

[7] = biological target: Gal(b1-4)GlcNAc(b1-3)Gal(b1-4)GlcNAc(b1-3)Gal(b1-4)GlcNAc(b1-3)Gal(b1-4)GlcNAc(b1-3)Gal(b1-4)GlcNAc(b1-2)Man(a1-3)[Gal(b1-4)GlcNAc(b1-3)Gal(b1-4)GlcNAc(b1-3)Gal(b1-4)GlcNAc(b1-3)Gal(b1-4)GlcNAc(b1-3)Gal(b1-4)GlcNAc(b1-2)Man(a1-6)]Man(b1-4)GlcNAc(b1-4)GlcNAc
Procedure, shortened: as §1

[8] = biological target: Gal(b1-4)GlcNAc(b1-3)Gal(b1-4)GlcNAc(b1-3)Gal(b1-4)GlcNAc(b1-3)Gal(b1-4)GlcNAc(b1-3)Gal(b1-4)GlcNAc(b1-2)Man(a1-3)[Gal(b1-4)GlcNAc(b1-3)Gal(b1-4)GlcNAc(b1-3)Gal(b1-4)GlcNAc(b1-3)Gal(b1-4)GlcNAc(b1-3)Gal(b1-4)GlcNAc(b1-2)Man(a1-6)]Man(b1-4)GlcNAc(b1-4)[Fuc(a1-6)]GlcNAc
Procedure, shortened: as §1

[9] = biological target: Gal(b1-4)GlcNAc(b1-3)Gal(b1-4)GlcNAc(b1-3)Gal(b1-4)GlcNAc(b1-3)Gal(b1-4)GlcNAc(b1-3)Gal(b1-4)GlcNAc(b1-2)[Gal(b1-4)GlcNAc(b1-3)Gal(b1-4)GlcNAc(b1-3)Gal(b1-4)GlcNAc(b1-3)Gal(b1-4)GlcNAc(b1-3)Gal(b1-4)GlcNAc(b1-6)]Man(a1-6)[Gal(b1-4)GlcNAc(b1-3)Gal(b1-4)GlcNAc(b1-3)Gal(b1-4)GlcNAc(b1-3)Gal(b1-4)GlcNAc(b1-3)Gal(b1-4)GlcNAc(b1-2)Man(a1-3)]Man(b1-4)GlcNAc(b1-4)[Fuc(a1-6)]GlcNAc
Procedure, shortened: as §1

[10] = biological target: Gal(b1-4)GlcNAc(b1-3)Gal(b1-4)GlcNAc(b1-3)Gal(b1-4)GlcNAc(b1-3)Gal(b1-4)GlcNAc(b1-3)Gal(b1-4)GlcNAc(b1-3)Gal(b1-4)GlcNAc(b1-2)Man(a1-3)[Gal(b1-4)GlcNAc(b1-3)Gal(b1-4)GlcNAc(b1-3)Gal(b1-4)GlcNAc(b1-3)Gal(b1-4)GlcNAc(b1-3)Gal(b1-4)GlcNAc(b1-3)Gal(b1-4)GlcNAc(b1-2)Man(a1-6)]Man(b1-4)GlcNAc(b1-4)GlcNAc
Procedure, shortened: as §1

[11] = biological target: Gal(b1-4)GlcNAc(b1-3)Gal(b1-4)GlcNAc(b1-3)GalNAc
Procedure, shortened: as §1

[12] = biological target: Gal(b1-4)GlcNAc(b1-3)Gal(b1-4)GlcNAc(b1-3)[Gal(b1-4)GlcNAc(b1-3)Gal(b1-4)GlcNAc(b1-6)]GalNAc
Procedure, shortened: as §1

[13] = biological target: Gal(b1-4)GlcNAc(b1-3)Gal(b1-4)GlcNAc(b1-6)[Gal(b1-3)]GalNAc
Procedure, shortened: as §1

[14] = biological target: Gal(b1-4)GlcNAc(b1-3)Gal(b1-4)[Fuc(a1-3)]GlcNAc(b1-3)Gal(b1-4)[Fuc(a1-3)]GlcNAc
Procedure, shortened: as §1

[15] = biological target: Gal(b1-4)GlcNAc(b1-3)GalNAc
Procedure, shortened: as §1

[16] = biological target: Gal(b1-4)GlcNAc(b1-3)[Fuc(a1-3)GlcNAc(b1-6)]Gal(b1-4)Glc
Procedure, shortened: as §1

[17] = biological target: Gal(b1-4)GlcNAc(b1-3)[Gal(b1-4)GlcNAc(b1-6)]Gal(b1-4)GlcNAc
Procedure, shortened: as §1

[18] = biological target: Gal(b1-4)GlcNAc(b1-3)[GlcNAc(b1-6)]Gal(b1-4)GlcNAc
Procedure, shortened: as §1

[19] = biological target: Gal(b1-4)GlcNAc(b1-6)Gal(b1-4)GlcNAc
Procedure, shortened: as §1

B1: OS9 (Arabidopsis thaliana) (protein)
chain: MRGSHHHHHHGMASMTGGQQMGRDLYDDDDKSRLQIFPAHLVGTFSRNNREPKYKIEFLPEDSPFHPGDNLESMVMLDKHGNRFLCYLPKEEKATSGWTSSQQNISTVMMETQQLVKLKTPDELLQPLSEKCLFRQEGWWSYEFCHQKYVRQLHVEDENKIVQEFFLGTFDPEATAAFNQTVSDASTDASQRYHSHVYTNGTTCDLTGSPREVEVRFVCAETRAMVTSITELSTCKYALTVQCPTLCKHPLFQLEKPVSHTIHCNAIPVEEDATRNKEEQAVDESPKMIADS
- glycan array binding signal (z-score) [1]: 0.733
- glycan array binding signal (z-score) [2]: -0.901
- glycan array binding signal (z-score) [3]: 0.003
- glycan array binding signal (z-score) [4]: 1.22
- glycan array binding signal (z-score) [5]: 0.515
- glycan array binding signal (z-score) [6]: -0.643
- glycan array binding signal (z-score) [7]: -0.299
- glycan array binding signal (z-score) [8]: 1.27
- glycan array binding signal (z-score) [9]: -0.551
- glycan array binding signal (z-score) [10]: 0.798
- glycan array binding signal (z-score) [11]: 0.571
- glycan array binding signal (z-score) [12]: 1.24
- glycan array binding signal (z-score) [13]: 0.462
- glycan array binding signal (z-score) [14]: -0.745
- glycan array binding signal (z-score) [15]: -0.217
- glycan array binding signal (z-score) [16]: -0.391
- glycan array binding signal (z-score) [17]: 1.43
- glycan array binding signal (z-score) [18]: 0.468
- glycan array binding signal (z-score) [19]: -0.595
